At least one compound was matched to its structure with a doubt left.
Legend:
human CaV1.2 [1] = molecular target: T1, human CaV1.2 (Homo sapiens, UniProt Q13936); test: Sophion QPatch dose-response assay, whole-cell voltage clamp of barium currents in CaV1.2-HEK293(AUX) cells; assay type: cell-based; conditions: Table 9; maximal fold change of peak inward current; n = 1 unless * n = 2
T1 construct: expressed in transfected cells; host or cells: Flp-In 293 T-Rex (HEK293), monoclonal CaV1.2-HEK293(AUX) clone 2-19B; doxycycline-induced auxiliary subunits
Source text: (§1) The monoclonal CaV1.2-HEK293(AUX) cell line constitutively expresses human CaV1.2 alpha1C (α1C) subunit (CACNA1C) and has doxycycline-inducible expression of the alpha2delta (α2Δ2) auxiliary subunit (CACNA2D2) and beta2 (02) auxiliary subunit (CACNB2). To generate the cell line, expression vectors pcDNA5.0/FRT-TO-CACNA2D2-FCS-P2A-CACNB2 and pCMV6-entry-CACNA1C were established via gene synthesis and cloning. Here, pcDNA5.0/FRT-TO plasmid is from Invitrogen, pCMV6-entry is from Origene, FCS stands for Furin Cleavage Site, P2A is a peptide self-cleavage sequence derived from porcine teschovirus-1, and FRT is the Flippase recognition target site. […]
(§2) The cells suspension was taken to the Sophion QPatch platform that uses whole-cell voltage clamp to measure barium currents conducted through CaV1.2 on single-hole QPlates. […] The first liquid period was to stabilize current amplitude, which was monitored using repetitive 200-ms voltage pulses stepping from −80 mV to 0 mV. […] G(V) was pre-calculated from equation G(V)=I(V)/(V−0.06), for each experimentally applied depolarization potential (V) and the corresponding current amplitude (I(V)), and 0.06 in the equation was the experimentally determined reversal potential in volts. […]

Sequences of proteins named here, by UniProt entry; tags and fusion partners are left off. Residues count along the entry.
UniProt Q13936, 1-2138 isoform Q13936-23: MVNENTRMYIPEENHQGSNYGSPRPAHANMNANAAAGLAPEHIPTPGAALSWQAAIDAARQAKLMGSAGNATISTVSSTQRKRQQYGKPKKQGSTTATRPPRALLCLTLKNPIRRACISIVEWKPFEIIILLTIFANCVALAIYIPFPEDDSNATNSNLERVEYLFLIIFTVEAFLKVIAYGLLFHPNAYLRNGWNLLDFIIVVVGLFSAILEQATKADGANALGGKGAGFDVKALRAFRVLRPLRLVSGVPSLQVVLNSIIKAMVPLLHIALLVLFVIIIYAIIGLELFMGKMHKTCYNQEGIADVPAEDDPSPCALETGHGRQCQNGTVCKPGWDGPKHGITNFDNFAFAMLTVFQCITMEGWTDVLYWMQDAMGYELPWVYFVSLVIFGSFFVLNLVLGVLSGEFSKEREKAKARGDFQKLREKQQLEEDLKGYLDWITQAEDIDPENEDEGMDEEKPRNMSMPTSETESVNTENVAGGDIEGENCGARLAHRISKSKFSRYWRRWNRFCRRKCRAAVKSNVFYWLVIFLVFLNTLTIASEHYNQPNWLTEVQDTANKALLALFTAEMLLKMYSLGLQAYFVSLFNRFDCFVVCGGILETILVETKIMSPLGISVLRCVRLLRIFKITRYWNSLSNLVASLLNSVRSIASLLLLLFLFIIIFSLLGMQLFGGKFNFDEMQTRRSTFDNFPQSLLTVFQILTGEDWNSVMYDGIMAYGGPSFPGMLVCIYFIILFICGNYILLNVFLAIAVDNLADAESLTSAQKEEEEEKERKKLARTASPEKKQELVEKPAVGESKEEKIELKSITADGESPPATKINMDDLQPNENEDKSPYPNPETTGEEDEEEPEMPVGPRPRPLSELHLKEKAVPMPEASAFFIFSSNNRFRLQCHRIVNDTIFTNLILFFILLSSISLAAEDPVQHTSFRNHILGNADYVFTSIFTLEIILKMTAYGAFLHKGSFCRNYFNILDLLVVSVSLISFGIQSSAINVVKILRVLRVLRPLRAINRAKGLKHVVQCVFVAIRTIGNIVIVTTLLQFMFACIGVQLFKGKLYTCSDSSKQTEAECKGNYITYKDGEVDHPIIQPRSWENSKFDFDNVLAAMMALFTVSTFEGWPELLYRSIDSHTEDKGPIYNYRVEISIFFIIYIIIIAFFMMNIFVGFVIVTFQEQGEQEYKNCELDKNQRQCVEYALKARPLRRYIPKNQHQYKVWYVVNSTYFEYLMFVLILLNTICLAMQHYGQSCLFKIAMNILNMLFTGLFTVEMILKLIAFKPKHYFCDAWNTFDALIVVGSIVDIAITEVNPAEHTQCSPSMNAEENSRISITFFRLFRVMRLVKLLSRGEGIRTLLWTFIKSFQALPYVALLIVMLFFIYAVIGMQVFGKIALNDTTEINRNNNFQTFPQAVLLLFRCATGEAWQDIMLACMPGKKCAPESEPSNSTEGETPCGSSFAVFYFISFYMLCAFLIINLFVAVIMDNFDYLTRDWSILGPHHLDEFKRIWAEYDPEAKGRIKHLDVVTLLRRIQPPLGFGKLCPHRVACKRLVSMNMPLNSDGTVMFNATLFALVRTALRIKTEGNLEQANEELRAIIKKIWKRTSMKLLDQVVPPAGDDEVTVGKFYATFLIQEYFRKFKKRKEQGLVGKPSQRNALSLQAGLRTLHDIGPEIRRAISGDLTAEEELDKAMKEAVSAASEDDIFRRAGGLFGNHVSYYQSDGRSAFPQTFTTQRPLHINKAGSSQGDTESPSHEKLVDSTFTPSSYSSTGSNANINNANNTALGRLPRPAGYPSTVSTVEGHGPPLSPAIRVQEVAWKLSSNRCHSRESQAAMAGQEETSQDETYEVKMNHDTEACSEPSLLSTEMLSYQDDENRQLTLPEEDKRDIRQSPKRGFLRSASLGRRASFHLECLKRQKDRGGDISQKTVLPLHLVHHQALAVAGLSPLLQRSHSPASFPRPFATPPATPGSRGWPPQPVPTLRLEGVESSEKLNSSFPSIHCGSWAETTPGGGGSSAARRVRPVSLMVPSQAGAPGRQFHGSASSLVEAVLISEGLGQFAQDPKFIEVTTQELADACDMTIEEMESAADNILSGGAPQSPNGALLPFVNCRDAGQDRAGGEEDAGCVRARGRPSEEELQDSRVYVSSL

human CaV1.2 [2] = molecular target: T1, human CaV1.2; test: QPatch channel biophysics assay (channel gating, V1/2 of activation, inactivation) in CaV1.2-HEK293(AUX) cells; assay type: cell-based; conditions: Table 9; shift of half-way channel activation voltage V1/2; further: test concentration or dose not given here
Source text: as §1, §2

`COC(=O)C1=C(CF)NC2=C(C(=O)OC2)[C@H]1c1ccccc1C(F)(F)F` (single isomer, unassigned) [Example 24] was tested, and the “Qpatch Emax” value (human CaV1.2 [1]) was 2.4 and the “Biophysics voltage shift (mV)” value (human CaV1.2 [2]) was −7.5 mV.

Source: US20250304594A1, “METHYL (R)-2-(FLUOROMETHYL)-5-OXO-4-PHENYL-4,5,6,7-TETRAHYDRO-1H-CYCLOPENTA[B]PYRIDINE-3-CARBOXYLATE AND METHYL (R)-2-(FLUOROMETHYL)-5-OXO-4-PHENYL-1,4,5,7-TETRAHYDROFURO[3,4-B]PYRIDINE-3-CARBOXYLATE AS Cav1,2 ACTIVATORS” (Novartis AG, priority 2020, published 2025)
